Read-outs that look alike come from different tables or passages of the source. No constants are given. Whether binding was seen depends on the method and setting. Binding seen in cells or lysates may run through a third protein. Some entries that bind do so weakly or less than the wild type.
T1: XBP1s (human (endogenous in HeLa)) (UniProt P17861)
T1 sequence: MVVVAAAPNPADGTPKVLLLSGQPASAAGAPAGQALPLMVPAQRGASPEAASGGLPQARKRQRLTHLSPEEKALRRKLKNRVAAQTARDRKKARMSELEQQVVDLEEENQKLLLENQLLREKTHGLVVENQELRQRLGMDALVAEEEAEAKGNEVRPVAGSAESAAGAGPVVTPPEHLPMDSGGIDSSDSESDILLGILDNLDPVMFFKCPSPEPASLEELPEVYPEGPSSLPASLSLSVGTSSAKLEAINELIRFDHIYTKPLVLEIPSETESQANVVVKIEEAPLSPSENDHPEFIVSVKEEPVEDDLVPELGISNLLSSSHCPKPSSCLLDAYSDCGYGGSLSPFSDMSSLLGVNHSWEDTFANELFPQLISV

By UniProt entry, the sequences of proteins in these tests, tags left out.
UniProt P18848: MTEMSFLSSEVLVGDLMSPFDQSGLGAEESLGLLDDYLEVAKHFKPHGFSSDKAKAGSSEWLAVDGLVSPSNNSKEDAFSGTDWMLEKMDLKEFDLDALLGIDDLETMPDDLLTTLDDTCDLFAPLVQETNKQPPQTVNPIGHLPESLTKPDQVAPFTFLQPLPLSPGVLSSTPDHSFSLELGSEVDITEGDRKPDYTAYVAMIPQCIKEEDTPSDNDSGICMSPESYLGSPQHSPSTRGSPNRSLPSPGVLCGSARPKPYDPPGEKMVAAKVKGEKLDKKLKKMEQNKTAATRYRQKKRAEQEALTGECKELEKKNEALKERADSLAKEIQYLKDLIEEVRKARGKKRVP
UniProt Q15853: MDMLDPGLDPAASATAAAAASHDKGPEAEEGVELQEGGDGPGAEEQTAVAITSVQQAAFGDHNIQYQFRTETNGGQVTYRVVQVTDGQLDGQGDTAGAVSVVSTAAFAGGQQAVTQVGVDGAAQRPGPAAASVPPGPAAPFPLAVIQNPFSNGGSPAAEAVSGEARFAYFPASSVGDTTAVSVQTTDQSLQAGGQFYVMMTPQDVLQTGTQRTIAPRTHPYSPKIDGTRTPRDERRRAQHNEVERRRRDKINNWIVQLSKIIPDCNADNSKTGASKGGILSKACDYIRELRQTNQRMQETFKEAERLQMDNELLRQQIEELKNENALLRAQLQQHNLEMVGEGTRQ
UniProt Q92769: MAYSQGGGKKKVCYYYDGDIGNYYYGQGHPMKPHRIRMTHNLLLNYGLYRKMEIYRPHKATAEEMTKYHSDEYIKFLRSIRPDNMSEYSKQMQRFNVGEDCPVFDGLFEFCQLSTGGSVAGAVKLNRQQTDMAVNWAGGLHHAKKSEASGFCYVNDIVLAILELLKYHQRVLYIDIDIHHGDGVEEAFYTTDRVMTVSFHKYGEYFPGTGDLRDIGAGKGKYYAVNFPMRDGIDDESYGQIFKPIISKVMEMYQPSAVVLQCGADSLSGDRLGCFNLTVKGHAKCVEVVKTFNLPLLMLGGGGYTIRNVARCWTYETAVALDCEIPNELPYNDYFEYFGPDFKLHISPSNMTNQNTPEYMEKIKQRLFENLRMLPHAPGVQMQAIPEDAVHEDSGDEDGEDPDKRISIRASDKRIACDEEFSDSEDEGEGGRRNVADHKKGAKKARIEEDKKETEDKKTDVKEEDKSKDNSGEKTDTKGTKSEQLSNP
UniProt Q13547: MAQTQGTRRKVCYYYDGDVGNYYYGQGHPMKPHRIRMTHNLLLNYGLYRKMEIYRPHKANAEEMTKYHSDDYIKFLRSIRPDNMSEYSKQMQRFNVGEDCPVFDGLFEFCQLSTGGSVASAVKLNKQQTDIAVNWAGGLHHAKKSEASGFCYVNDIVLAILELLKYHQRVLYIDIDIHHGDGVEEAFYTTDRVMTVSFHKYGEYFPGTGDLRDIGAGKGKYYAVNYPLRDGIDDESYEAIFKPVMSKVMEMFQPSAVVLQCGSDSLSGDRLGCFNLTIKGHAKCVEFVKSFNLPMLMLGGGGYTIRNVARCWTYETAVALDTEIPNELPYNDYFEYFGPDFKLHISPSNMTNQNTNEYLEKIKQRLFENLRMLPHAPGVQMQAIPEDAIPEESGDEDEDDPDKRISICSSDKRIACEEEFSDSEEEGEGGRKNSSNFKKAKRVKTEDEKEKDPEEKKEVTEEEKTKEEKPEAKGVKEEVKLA


Tests used:
Assay in all cases: co-IP
[1] = target: p97/VCP (human (endogenous in HeLa)) (UniProt P55072)
[2] = target: ATF4 (human (endogenous in HeLa)) (UniProt P18848)
[3] = target: USF2 (human (endogenous in HeLa)) (UniProt Q15853)
[4] = target: T1, XBP1s (human (endogenous in HeLa))
[5] = target: HDAC2 (human (endogenous in HeLa)) (UniProt Q92769)
[6] = target: HDAC1 (human (endogenous in HeLa)) (UniProt Q13547)
[7] = target: p97/VCP (human (endogenous in HeLa)) (UniProt P55072); remark: listed apart in the source
[8] = target: ATF4 (human (endogenous in HeLa)) (UniProt P18848); remark: listed apart in the source
[9] = target: T1, XBP1s (human (endogenous in HeLa)); remark: listed apart in the source

binding [1] | binding [2] | binding [3] | binding [4] | binding [5] | binding [6] | binding [7] | binding [8] | binding [9] | Molecule
binds | binds | binds | binds |  |  |  |  |  | HDAC1 (from UniProt Q13547 1-482)
 | binds | binds | binds | binds | binds |  |  |  | p97/VCP (from UniProt P55072 1-806)
 |  |  |  |  |  | binds | no binding | binds | ING2 (protein, UniProt Q9H160 1-280) MLGQQQQQLYSSAALLTGERSRLLTCYVQDYLECVESLPHDMQRNVSVLRELDNKYQETLKEIDDVYEKYKKEDDLNQKKRLQQLLQRALINSQELGDEKIQIVTQMLELVENRARQMELHSQCFQDPAESERASDKAKMDSSQPERSSRRPRRQRTSESRDLCHMANGIEDCDDQPPKEKKSKSAKKKKRSKAKQEREASPVEFAIDPNEPTYCLCNQVSYGEMIGCDNEQCPIEWFHFSCVSLTYKPKGKWYCPKCRGDNEKTMDKSTEKTKKDRRSR
